These are yes or no findings as the source states them, for the method shown. Binding seen in cells or lysates may run through a third protein. Here binding means that the protein was enriched with, or labelled near, the bait; the list need not be complete.
Target: HECTD1 (endogenous) (human (endogenous in HEK293T)) (UniProt Q9ULT8)
Test: affinity purification with mass spectrometry; anti-HECTD1 antibody (Ab101992) or IgG on Dynabeads, incubated 1 h at RT with lysates of HEK293T cells synchronised in late G2 (RO3306) or released into M-phase; LC-MS/MS of gel slices

Amino acid sequences for entries named in this document (tags omitted).
UniProt Q9ULT8: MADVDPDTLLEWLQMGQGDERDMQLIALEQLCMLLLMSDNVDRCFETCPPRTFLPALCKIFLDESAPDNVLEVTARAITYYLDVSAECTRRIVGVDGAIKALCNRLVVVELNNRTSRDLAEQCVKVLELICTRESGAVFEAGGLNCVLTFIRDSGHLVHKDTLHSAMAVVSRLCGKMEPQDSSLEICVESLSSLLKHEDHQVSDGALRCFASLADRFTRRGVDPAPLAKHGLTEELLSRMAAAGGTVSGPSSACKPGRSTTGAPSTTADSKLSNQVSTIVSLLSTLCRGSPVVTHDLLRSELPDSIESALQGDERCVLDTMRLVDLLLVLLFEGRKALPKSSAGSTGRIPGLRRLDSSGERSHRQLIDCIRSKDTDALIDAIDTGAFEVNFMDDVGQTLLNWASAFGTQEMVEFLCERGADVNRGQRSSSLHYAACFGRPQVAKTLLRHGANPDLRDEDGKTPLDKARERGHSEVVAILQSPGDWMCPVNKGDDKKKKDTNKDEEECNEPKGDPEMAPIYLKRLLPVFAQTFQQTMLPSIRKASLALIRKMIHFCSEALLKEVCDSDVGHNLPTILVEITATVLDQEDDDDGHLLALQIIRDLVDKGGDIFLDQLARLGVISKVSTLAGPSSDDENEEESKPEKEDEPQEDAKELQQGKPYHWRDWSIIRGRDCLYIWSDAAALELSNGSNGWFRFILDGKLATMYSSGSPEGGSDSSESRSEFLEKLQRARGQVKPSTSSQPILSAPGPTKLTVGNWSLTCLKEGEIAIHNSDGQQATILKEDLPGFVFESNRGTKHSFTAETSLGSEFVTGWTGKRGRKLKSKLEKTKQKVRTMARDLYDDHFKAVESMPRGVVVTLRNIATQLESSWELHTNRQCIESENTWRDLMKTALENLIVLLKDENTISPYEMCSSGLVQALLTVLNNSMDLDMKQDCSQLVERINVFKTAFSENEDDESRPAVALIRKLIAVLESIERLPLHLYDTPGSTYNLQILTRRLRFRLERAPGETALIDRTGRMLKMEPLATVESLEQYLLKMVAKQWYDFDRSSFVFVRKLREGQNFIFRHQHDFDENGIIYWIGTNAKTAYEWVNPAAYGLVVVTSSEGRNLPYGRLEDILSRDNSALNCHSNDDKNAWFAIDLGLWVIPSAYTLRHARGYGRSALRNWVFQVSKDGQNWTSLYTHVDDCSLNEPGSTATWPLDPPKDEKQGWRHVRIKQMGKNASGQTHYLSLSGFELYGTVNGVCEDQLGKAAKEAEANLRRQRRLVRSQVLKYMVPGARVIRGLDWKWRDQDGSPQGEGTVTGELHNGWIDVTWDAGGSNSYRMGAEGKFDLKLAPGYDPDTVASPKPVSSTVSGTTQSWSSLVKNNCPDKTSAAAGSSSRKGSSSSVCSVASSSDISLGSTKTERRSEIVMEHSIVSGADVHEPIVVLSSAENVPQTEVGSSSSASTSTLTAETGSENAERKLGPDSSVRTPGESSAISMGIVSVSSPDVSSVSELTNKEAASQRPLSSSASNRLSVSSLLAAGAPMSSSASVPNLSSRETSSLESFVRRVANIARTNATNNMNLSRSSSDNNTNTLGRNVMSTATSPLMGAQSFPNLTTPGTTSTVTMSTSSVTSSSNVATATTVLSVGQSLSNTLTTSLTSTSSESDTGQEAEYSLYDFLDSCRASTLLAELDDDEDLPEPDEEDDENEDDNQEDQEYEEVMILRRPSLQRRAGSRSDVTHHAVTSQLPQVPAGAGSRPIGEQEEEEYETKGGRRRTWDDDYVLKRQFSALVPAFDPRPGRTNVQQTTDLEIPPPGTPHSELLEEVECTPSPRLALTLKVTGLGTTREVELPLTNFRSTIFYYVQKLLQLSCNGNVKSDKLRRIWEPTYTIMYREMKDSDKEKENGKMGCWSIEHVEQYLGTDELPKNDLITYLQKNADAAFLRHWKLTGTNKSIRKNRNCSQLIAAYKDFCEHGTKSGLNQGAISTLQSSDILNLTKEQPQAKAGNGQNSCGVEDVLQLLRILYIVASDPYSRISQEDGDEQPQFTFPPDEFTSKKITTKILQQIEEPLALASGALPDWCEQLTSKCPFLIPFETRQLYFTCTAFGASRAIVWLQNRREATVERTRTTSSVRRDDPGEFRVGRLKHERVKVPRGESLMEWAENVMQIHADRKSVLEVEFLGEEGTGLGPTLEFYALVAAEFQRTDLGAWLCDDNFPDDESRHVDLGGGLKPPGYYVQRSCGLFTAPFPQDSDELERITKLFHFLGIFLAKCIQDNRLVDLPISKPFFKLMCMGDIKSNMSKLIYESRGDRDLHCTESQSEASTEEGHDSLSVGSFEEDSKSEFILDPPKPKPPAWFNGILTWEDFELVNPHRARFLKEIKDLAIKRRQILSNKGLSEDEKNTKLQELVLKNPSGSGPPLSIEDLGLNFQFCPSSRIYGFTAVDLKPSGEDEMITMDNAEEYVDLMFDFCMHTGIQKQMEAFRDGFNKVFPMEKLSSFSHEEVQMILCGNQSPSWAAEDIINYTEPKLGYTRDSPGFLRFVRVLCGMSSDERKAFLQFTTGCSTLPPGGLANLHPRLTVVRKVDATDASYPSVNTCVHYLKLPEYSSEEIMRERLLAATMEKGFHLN
UniProt O43684: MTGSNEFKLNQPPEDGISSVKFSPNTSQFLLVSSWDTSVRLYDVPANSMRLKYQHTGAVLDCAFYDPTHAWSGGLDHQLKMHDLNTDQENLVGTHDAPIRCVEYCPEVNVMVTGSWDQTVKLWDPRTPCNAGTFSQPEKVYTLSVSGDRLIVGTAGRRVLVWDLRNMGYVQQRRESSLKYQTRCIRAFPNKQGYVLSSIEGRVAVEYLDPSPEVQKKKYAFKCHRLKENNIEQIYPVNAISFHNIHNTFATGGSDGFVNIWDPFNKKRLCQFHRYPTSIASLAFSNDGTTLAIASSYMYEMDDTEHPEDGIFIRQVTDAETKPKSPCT

binding: binds
Substance: BUB3 (endogenous) (from UniProt O43684 1-328)

Source: publication PMC9343455
